# Experimental data: PMC4178057
# Results are given in words; binding and its absence hold for the method and conditions named. In cells and extracts the contact can be indirect. Some results given as binding are weak or reduced against the parent protein; the word gives no strength. Tags and fused reporters may be left off the sequences shown.
# T1: zebrafish Tbx6 tagged with Flag peptide at C terminus (zebrafish) (UniProt Q8JIS6)
# T1 sequence: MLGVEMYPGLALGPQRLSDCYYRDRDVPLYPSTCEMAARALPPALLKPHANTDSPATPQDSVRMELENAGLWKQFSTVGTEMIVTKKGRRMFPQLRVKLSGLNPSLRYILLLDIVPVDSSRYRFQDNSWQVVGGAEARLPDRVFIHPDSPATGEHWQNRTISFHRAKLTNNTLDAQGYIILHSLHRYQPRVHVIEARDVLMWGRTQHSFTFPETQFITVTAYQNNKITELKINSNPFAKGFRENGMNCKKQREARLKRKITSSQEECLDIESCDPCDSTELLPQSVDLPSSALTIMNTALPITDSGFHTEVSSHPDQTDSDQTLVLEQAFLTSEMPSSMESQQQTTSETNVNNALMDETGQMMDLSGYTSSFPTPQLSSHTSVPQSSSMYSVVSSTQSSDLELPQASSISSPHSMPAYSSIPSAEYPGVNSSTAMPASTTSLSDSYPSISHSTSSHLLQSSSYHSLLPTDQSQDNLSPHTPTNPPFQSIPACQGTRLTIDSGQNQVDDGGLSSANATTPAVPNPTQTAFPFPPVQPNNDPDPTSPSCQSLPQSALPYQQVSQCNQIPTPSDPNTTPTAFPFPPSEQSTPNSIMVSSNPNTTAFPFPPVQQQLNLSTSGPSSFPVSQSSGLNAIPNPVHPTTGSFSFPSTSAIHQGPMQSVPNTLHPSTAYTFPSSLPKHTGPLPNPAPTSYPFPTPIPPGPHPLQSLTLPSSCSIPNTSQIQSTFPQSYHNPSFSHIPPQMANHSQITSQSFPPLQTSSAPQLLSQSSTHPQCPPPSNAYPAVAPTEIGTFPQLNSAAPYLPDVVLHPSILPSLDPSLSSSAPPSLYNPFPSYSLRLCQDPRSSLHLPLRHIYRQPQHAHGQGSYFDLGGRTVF
# T2: mouse Tbx6 tagged with Flag (mouse) (UniProt P70327)
# T2 sequence: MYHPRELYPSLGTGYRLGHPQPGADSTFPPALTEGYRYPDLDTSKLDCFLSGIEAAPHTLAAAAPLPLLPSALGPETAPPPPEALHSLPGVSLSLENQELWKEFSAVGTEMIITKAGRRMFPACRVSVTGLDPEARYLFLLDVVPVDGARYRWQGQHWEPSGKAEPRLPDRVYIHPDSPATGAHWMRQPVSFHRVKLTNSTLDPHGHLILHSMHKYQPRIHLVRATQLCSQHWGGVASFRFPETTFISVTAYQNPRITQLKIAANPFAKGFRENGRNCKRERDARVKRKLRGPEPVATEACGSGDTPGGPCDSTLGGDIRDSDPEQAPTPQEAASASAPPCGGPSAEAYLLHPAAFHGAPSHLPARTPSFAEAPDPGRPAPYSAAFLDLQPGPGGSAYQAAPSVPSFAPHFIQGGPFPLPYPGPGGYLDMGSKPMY
# B1: zebrafish Ripply1 with six Myc tags (protein, UniProt Q2WG80 1-140)
# chain: MNSVCFATPHTKHMDSKMQLTSSPASLWRPWLVTRKDAQTECRRTKLACPYSRPEVPGNTTTDGKMQSFQHPVRLYWPRSKSFDYLFSDGEALLRNFPVQATINFYDESDSEDEEESCDEDDESDVEDCLKHNSHFTAFN
# B2: mouse Ripply2 tagged with Myc (protein, UniProt Q2WG76 1-128)
# chain: MDTTESAESAHNPARPPSRSRCPPSAQPGSEGFWRPWVRTPGEKEKRTGPRAAEALPSGPGMAEASGKLLQYQHPVRLFWPKSKCYDYLYQEAETLLKNFPIQATISFYEDSDSEDEIEGLACENQSN
# How the values were obtained:
# [1] = biological target: T1, zebrafish Tbx6 tagged with Flag peptide at C terminus (zebrafish); experiment: co-IP; 293T cells transfected with ztbx6-Flag and zRipply1-6Myc or zRipply1-mutFPVQ-6Myc; whole cell lysates pre-cleared on Protein G resin 2 hrs at 4°C, precipitated with anti-FLAG M2 resin 3 hrs at 4°C; Western blotting with anti-Myc
# [2] = biological target: T2, mouse Tbx6 tagged with Flag (mouse); experiment: co-IP; Cos 7 cells transfected with mTbx6-Flag and mRipply2-Myc or mRipply2-mutFPIQ-Myc; whole cell lysates pre-cleared on Protein G resin 2 hrs at 4°C, precipitated with anti-FLAG M2 resin 3 hrs at 4°C; Western blotting with anti-Myc
Binder,binding [1],binding [2]
B1,binds,
B2,,binds
